PubChem BioAssay AID1159584, Peter MacCallum Cancer Centre – 2016
Shown is one part, drawn at random, of about 18,000 reagents tested. Not stated in the record: the amount of reagent, the time to read-out.

Assay: 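Genes whose loss is lethal only together with E-cadherin loss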 (primary screen)
Cell system: human MCF10A breast epithelial cells, parental and CDH1-null
Reagent: siRNA against human genes
Read-out: 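Cell viability by CellTiter-Glo ATP luminescence, each line scaled to the mean of mock wells across plates, then CDH1-null over parental ratio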
Reading the numbers: CDH1-null / parental viability ratio: higher = CDH1-null cells survive relatively better than parental; CDH1-null viability vs mock: higher = more viable CDH1-null cells; parental viability vs mock: higher = more viable parental cells

The first 3 records, ahead of the listing:
Gene,CDH1-null / parental viability ratio,CDH1-null viability vs mock (fraction of mock),parental viability vs mock (fraction of mock)
TMEM108,0.79,0.76,0.96
MSANTD3,0.76,0.75,0.99
CCNE1,1.06,0.68,0.64

Main list, from the start:
Gene,CDH1-null / parental viability ratio,CDH1-null viability vs mock (fraction of mock),parental viability vs mock (fraction of mock)
TMEM108,0.79,0.76,0.96
MSANTD3,0.76,0.75,0.99
CCNE1,1.06,0.68,0.64
PTK2,0.83,0.65,0.78
GDE1,0.87,0.71,0.82
SNCAIP,0.65,0.54,0.83
SPTA1,0.98,0.9,0.92
AGXT,0.73,0.53,0.73
PCGF2,0.84,0.9,1.07
RAVER1,0.95,0.7,0.74
NFIL3,0.93,0.69,0.74
GRTP1,0.72,0.62,0.86
FAM153A,1.15,0.83,0.72
ANGPTL5,0.88,0.88,1
ORC5,1.24,1.04,0.84
KCNC1,1.19,1,0.84
CFDP1,1.12,1.1,0.98
ZNF563,0.76,0.51,0.67
ZNF581,1.15,0.85,0.74
TGM4,0.81,0.58,0.72
PTPN21,1.17,0.76,0.65
CNGB3,1.37,1.12,0.82
TEKTL1,0.99,0.68,0.69
PMCH,0.67,0.59,0.88
ADAMTSL4,1,0.98,0.98
ZNF496,1.07,0.64,0.6
RIDA,1.05,1.21,1.15
CTSE,1.17,0.62,0.53
